Assay results reported in patent publication US20200325212A1.
No constants are given. Whether binding was seen depends on the method and setting. Some entries that bind do so weakly or less than the wild type. For part of these data: Where a sequence is shown, tags or fusion partners need not be part of it.

Assays:
[1] = molecular target: CTLA4-Fc variant T51H (human); experiment: analytical SEC (relative A230) of an equimolar mixture of mLCN2-Fc and CTLA4Fc T51H
[2] = molecular target: CTLA4-Fc variant Y52F (human); experiment: analytical SEC (relative A230) of an equimolar mixture of mLCN2-Fc and CTLA4Fc Y52F
[3] = molecular target: CTLA4-Fc variant E31A R33A (human); experiment: analytical SEC (relative A230) of an equimolar mixture of mLCN2-Fc and CTLA4Fc E31A R33A
[4] = molecular target: CTLA4-Fc variant T51H (human); experiment: analytical SEC, 1:1 mix
[5] = molecular target: CTLA4-Fc variant Y52F (human); experiment: analytical SEC, 1:1 mix
[6] = molecular target: CTLA4-Fc variant E31A R33A (human); experiment: analytical SEC, 1:1 mix
[7] = molecular target: CTLA4-Fc variant E31S (human); experiment: analytical SEC, 1:1 mix
[8] = molecular target: CTLA4-Fc variant E31S (human); experiment: analytical SEC (relative A230) of an equimolar mixture of mLCN2-Fc and CTLA4Fc E31S
[9] = molecular target: CTLA4-Fc variant Y52F (human); experiment: SPR (Table 3)

Measured: binding

B1: mLCN2-Fc (bivalent m-Lcn2 fused to human IgG1 Fc) (Fc fusion, not shown: a dimerising Fc or GST)
chain: QDSTSDLIPAPPLSKVPLQQNFQDNQFHGKWYVVGLAGNRILRDDQHPMNMYATIYELKEDKSYNVTSVISSHKKCEYTIATFVPGSQPGEFTLGNIKSYGDKTSYLVRVVSTDYNQYAVVFFKLAEDNAEFFAITIYGRTKELASELKENFIRFSKSLGLPENHIVFPVPIDQCIDG
binds: [1] | [2] | [3] | [4] | [5] | [6] | [7] | [8]

B2: modified lipocalin2 (mLcn2), monovalent (designed binder)
chain: QDSTSDLIPAPPLSKVPLQQNFQDNQFHGKWYVVGLAGNRILRDDQHPMNMYATIYELKEDKSYNVTSVISSHKKCEYTIATFVPGSQPGEFTLGNIKSYGDKTSYLVRVVSTDYNQYAVVFFKLAEDNAEFFAITIYGRTKELASELKENFIRFSKSLGLPENHIVFPVPIDQCIDG
binds: [9]
